Reference: publication PMC10602077
No constants are given. Whether binding was seen depends on the method and setting. In cells and extracts the contact can be indirect. Some entries that bind do so weakly or less than the wild type.

Amino acid sequences for entries named in this document (tags omitted).
UniProt Q13216: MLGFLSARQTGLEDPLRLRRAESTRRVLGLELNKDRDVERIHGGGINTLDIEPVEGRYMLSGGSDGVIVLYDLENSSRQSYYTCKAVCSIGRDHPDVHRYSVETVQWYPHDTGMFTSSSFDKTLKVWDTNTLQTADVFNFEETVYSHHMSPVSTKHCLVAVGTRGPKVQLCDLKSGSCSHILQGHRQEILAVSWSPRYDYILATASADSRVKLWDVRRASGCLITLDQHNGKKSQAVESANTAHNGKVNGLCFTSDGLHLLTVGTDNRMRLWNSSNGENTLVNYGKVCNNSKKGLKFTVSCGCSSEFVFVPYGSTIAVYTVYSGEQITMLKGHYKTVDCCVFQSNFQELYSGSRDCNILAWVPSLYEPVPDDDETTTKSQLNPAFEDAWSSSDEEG
UniProt Q92905: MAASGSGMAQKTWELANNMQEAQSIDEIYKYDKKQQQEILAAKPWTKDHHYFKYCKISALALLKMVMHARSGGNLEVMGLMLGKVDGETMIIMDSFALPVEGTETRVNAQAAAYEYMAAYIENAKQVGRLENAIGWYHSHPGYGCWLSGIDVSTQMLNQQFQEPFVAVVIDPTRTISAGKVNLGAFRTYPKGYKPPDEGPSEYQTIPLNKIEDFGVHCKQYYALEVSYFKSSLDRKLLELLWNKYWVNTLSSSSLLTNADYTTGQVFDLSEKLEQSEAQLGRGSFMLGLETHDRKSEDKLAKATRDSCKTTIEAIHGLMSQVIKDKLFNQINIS
UniProt Q13619: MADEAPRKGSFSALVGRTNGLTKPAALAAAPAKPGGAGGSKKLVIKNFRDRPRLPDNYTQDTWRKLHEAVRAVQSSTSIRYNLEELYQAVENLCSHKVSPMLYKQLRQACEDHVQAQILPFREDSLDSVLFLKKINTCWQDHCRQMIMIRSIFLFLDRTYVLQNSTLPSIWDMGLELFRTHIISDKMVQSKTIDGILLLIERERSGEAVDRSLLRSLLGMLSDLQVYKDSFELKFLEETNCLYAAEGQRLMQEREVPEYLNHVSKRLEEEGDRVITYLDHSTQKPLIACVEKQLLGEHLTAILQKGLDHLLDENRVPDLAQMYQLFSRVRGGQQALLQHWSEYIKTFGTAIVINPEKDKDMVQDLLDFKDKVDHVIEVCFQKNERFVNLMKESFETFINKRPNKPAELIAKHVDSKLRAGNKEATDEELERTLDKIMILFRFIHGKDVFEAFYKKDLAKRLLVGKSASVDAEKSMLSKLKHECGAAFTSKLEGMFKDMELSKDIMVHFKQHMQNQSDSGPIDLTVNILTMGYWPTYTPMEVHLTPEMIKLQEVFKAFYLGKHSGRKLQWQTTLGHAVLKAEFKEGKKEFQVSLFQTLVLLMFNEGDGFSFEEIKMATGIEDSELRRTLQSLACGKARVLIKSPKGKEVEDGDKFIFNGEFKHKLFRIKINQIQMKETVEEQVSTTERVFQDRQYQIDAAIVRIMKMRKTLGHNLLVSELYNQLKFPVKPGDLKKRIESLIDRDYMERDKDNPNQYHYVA

Legend:
CSA-GFP = CSA-GFP (UniProt Q13216); test: co-IP; GFP-Trap beads, 90 min at 4 °C, lysate in 30 mM HEPES pH 7.5, 130 mM NaCl, 1 mM MgCl2, 0.5% Triton X-100, sonicated, Benzonase; immunoblot; cells mock treated or UV irradiated (also DDA1 KO cells, 1 and 10 h after 10 J.m^-2)
[1] = biological target: CSA-mClover (human (endogenous in HCT116)) (UniProt Q13216); test: as above

binding (CSA-GFP) | binding [1] | Substance
binds | binds | CSN5 (from UniProt Q92905 1-334)
binds | binds | CUL4A (from UniProt Q13619 1-759)
